The source of these data is PMC7927628.

By UniProt entry, the sequences of proteins in these tests, tags left out.
UniProt O75901: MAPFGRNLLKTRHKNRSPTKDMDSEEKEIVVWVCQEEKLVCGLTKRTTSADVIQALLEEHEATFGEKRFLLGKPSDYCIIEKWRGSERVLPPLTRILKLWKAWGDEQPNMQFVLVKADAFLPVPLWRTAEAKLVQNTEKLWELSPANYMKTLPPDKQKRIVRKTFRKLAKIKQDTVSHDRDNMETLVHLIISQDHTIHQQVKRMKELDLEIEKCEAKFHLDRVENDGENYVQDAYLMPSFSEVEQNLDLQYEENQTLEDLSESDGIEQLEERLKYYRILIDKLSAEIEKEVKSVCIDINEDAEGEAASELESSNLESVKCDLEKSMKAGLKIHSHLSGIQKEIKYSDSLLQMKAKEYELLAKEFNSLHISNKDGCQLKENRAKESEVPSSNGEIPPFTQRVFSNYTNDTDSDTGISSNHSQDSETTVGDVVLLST

Assay [1] deals with T1, TGF‐β‐activated kinase 1 (TAK1) (UniProt O43318).
T1 sequence: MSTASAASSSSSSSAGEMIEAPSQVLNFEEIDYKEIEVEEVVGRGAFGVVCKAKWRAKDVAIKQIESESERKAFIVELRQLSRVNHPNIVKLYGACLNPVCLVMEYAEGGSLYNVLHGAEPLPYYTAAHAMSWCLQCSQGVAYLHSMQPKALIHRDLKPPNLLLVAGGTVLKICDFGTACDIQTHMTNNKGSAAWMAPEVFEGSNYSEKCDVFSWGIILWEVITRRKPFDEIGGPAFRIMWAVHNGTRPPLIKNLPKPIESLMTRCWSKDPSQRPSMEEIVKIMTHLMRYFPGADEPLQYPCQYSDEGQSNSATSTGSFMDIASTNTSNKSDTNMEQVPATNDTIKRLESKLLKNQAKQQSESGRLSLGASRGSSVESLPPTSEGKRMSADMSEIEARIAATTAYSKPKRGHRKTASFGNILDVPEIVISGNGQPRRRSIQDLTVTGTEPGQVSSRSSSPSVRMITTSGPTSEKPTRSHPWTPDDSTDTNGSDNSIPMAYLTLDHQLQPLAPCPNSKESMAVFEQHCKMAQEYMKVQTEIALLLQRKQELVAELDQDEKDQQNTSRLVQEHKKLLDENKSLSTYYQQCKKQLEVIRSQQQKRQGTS
Description: co-IP; co-immunoprecipitation of TAK1 and RASSF9 (Figure S10D,E); details only in the Supporting Information.

For assay [2], the target named is T1, TGF‐β‐activated kinase 1 (TAK1). Description: pull-down; pull-down of TAK1 and RASSF9 (Figure S10D,E); details only in the Supporting Information.

Results are given in words; binding and its absence hold for the method and conditions named. Binding seen in cells or lysates may run through a third protein. Some results given as binding are weak or reduced against the parent protein; the word gives no strength.

For the substance “Ras association domain family 9 (RASSF9) (from UniProt O75901 1-435)”, the binding entry in assay [1] and in assay [2] was “binds” throughout.
